# According to patent publication US20100113557A1:
# Protein sequences, listed by entry. Tags and fused reporters are not part of them.
# UniProt P38398: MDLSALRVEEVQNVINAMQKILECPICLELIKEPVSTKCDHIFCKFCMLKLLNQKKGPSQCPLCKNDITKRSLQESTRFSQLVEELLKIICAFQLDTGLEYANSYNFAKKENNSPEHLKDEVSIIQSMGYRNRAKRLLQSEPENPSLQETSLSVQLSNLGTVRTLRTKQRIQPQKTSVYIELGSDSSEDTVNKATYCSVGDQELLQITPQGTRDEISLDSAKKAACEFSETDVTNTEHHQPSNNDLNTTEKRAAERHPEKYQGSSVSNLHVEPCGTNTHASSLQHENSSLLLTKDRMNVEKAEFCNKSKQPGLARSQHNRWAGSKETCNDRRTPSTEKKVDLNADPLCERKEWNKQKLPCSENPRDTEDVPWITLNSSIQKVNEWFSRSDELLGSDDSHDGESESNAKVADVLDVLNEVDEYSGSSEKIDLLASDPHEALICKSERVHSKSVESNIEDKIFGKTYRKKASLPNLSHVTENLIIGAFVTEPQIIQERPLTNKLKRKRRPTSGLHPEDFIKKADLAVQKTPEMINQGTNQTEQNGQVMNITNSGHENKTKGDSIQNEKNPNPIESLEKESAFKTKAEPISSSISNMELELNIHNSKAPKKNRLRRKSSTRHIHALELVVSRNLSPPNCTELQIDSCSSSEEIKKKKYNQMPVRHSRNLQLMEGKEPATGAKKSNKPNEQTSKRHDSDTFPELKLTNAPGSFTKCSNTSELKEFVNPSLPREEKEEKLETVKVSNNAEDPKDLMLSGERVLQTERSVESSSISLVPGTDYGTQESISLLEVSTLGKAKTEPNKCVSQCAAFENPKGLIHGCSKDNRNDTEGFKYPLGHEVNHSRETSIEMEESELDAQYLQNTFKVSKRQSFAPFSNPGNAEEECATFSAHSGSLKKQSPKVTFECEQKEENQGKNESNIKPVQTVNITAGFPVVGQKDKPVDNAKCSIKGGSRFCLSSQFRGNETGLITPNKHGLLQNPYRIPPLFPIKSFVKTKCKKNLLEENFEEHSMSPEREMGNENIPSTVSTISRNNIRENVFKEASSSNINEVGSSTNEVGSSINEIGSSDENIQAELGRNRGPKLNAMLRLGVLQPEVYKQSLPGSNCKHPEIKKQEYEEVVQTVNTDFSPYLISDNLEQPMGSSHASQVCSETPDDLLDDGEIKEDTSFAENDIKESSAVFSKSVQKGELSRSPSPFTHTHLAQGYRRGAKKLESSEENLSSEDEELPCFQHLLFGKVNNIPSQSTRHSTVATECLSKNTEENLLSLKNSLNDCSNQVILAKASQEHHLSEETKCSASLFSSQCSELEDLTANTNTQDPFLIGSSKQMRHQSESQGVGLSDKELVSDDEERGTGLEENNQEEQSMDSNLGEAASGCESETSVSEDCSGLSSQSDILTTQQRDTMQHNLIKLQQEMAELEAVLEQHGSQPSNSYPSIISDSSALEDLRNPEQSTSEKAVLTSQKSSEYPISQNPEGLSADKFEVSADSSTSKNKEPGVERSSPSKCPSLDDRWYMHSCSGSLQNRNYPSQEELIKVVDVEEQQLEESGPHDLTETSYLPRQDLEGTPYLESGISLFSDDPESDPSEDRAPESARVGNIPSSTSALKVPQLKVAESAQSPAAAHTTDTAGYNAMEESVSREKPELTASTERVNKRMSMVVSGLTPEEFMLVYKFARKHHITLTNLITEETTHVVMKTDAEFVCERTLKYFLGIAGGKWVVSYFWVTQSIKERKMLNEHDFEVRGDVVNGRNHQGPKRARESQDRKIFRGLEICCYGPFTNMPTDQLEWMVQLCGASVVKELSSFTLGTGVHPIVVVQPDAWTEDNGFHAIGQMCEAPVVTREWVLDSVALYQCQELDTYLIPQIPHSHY
# Results are given in words; binding and its absence hold for the method and conditions named. For some assays here: Binding seen in cells or lysates may run through a third protein. Some entries that bind do so weakly or less than the wild type.
# Tests used:
# [1] = target: FLAG-BRCA1 (UniProt P38398); test: anti-FLAG immunoprecipitation of FLAG-BRCA1 from transfected 293T cells, LC/MS/MS
# [2] = target: FLAG-BRCA1 (UniProt P38398); test: anti-FLAG immunoprecipitation of FLAG-BRCA1 from MG132-treated 293T cells, LC/MS/MS of the immune complex
# [3] = target: FLAG-BRCA1 (UniProt P38398); test: restates the co-immunoprecipitation result of Example 1
# [4] = target: FLAG-BRCA1 (UniProt P38398); test: reciprocal co-immunoprecipitation and Western blot, co-transfected 293T cells
# [5] = target: FLAG-BRCA1 (UniProt P38398); test: co-immunoprecipitation (anti-FLAG, anti-Myc) and immunoblotting, transfected 293T cells
binding [1],binding [2],binding [3],binding [4],binding [5],Substance
binds,binds,,,,HERC2 (hect domain and RCC-like domain 2) (from UniProt O95714 1-4834) (enzyme)
,,binds,binds,binds,Myc-HERC2-CT (from UniProt O95714 4254-4834)
